Record: PubChem BioAssay AID652259 (Drosophila RNAi Screening Center, 2013)

- Test: 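Identify new Wingless signalling regulators in fly cells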 (primary screen)
- System: Drosophila clone 8 imaginal disc epithelial cells
- Reagents: long dsRNA against Drosophila genes
- Challenge: pathway stimulated by co-transfected Wingless expression plasmid
- Read-out: 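Firefly luciferase from a tcf-site Wingless reporter, measured alongside co-transfected Renilla luciferase that tracks transfection; pathway stimulated by a Wingless plasmid; the firefly-to-Renilla ratio is not deposited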
- Direction: firefly reporter light: higher = more Wg reporter light, before normalisation; Renilla control light: higher = more transfected or surviving cells
- Active means: 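a knock-down is a candidate when at least two out of four statistical tests show it departing from its plate mean; one test alone signals a weak candidate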
- Calls: active = candidate regulator (raises or lowers reporter); inactive = not a candidate
In all, the deposit lists about 22,000 reagents; shown is an unselected part of those with a known target gene and a result. Of all reagents, 233 (1.1%) got an active call. 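Light values are raw, unnormalised plate reads; the ratio scores behind the reporter calls were not deposited.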 A number with no mark means an inactive call. The numbers tell different reagents against one gene apart. A plus sign joins genes that one reagent is predicted to hit. The record does not give: the amount of reagent, the time to read-out, the dose of the treatment.

gene	dsRNA no.	reporter change call, replicate 1	firefly reporter light, replicate 1	firefly reporter light, replicate 2	Renilla control light, replicate 1	Renilla control light, replicate 2
CG7069	1		1671	6699	946	1961
ClC-b (Chloride channel-b)	1		4252		1794	
CG31960	1		2119	8784	761	2760
Pat1 (Protein interacting with APP tail-1)	1		1970	7008	717	1909
dare (defective in the avoidance of repellents)	1		6346		2448	
cv-2 (crossveinless 2)	1		18736		9545	
cv-2 (crossveinless 2)	2		2528	5124	951	1680
Pgant4 (Polypeptide N-Acetylgalactosaminyltransferase 4)	1		3447	7014	1228	2656
CG9021	1		8229		3659	
Trx2 (Thioredoxin 2)	1		4280	8883	1254	3811
Polr2H (RNA polymerase II, I and III subunit H)	1		7733		1829	
Rx (Retinal Homeobox)	1		28108		11718	
Rx (Retinal Homeobox)	2		3337	9354	1284	4017
qsm (quasimodo)	1		14891		9354	
qsm (quasimodo)	2		3836		1840	
Cyp312a1 (Cytochrome P450 312a1)	1		5012		2547	
CG1227	1		5397		2336	
l(3)psg2 (lethal (3) persistent salivary gland 2)	1		4737		876	
conv (convoluted)	1	Wg reporter activity lowered	4688		954	
CG34176	1		4056	8425	1234	2345
CG17994	1		3148	10077	1223	2816
Ent2 (Equilibrative nucleoside transporter 2)	1		13174		4214	
CG32409	1		4774		2685	
simj (simjang)	1		2364		1242	
tomboy20	1		12828		3874	
beat-IIb (beaten path IIb)	1		5445		342	
beat-IIb (beaten path IIb)	2		16841		3885	
beat-IIb (beaten path IIb)	3		16348		4723	
CG13217	1		8749		4053	
CG3597	1		2664	8118	916	2578
Fam92	1		9448		3243	
Smg6	1		3424	9101	1850	3202
CG9536	1		7674		3434	
CG13471	1		5017		2172	
Pkd2 (Polycystic kidney disease 2)	1		1209	4871	933	3207
CG9992	1		3016	7561	1213	2934
CG9992	2		2.84e5	3.21e5	1.52e5	1.33e5
Nmdar2 (NMDA receptor 2)	1		26082		16981	
Nmdar2 (NMDA receptor 2)	2		28320		18913	
Nmdar2 (NMDA receptor 2)	3		22997		16683	
CG42271	1		2619	5265	1312	2310
CG42271	2		5.43e5	5.27e5	2.54e5	2.43e5
eys (eyes shut)	1		9696		5661	
eys (eyes shut)	2		3973	4205	1124	1379
eys (eyes shut)	3		2454	4867	864	2029
eys (eyes shut)	4		13121		5205	
CG10165	1		10425		3622	
CG1077	1		16326	8.93e5	5168	4.64e5
CG1143	1		7545		2669	
alphaTub84D (alpha-Tubulin at 84D)	1		17431		2848	
CG5849	1		33916		5280	
Pdhb (Pyruvate dehydrogenase E1 beta subunit)	1		1923	9095	896	3378
SLO2 (slowpoke 2)	1		2918	7810	213	281
SLO2 (slowpoke 2)	2		3036	8689	668	3152
SLO2 (slowpoke 2)	3		2813	9699	563	2523
SLO2 (slowpoke 2)	4		2952	6007	761	3203
SLO2 (slowpoke 2)	5		3826	4390	368	776
CG15742	1		3172	7490	1165	2753
Gbeta76C (G protein beta subunit 76C)	1		7323		3393	
EDTP (Egg-derived tyrosine phosphatase)	1		9942		2453	
CG8209	1		1609	8313	1428	3180
Naa60 (N(alpha)-acetyltransferase 60)	1		7468		2551	
CG31697	1		3.73e5	4.21e5	1.54e5	1.64e5
CG4988	1		3525	4791	1361	1808
Ugt302C1 (UDP-glycosyltransferase family 302 member C1)	1		6506		2256	
CG11668	1		18407		4531	
Rrp1 (Recombination repair protein 1)	1		3428	8128	1691	2936
nAChRalpha3 (nicotinic Acetylcholine Receptor alpha3)	1		19365		9637	
CG30083	1		21021		17907	
mus304 (mutagen-sensitive 304)	1		4736		2355	
Z600	1		5600		2384	
CG7841	1		5565		2459	
CG14823	1		3536		2018	
CG31204	1		14668		7187	
CG5098	1		17912		6439	
Pal2 (Peptidyl-alpha-hydroxyglycine-alpha-amidating lyase 2)	1		2770	4464	759	2141
CG16984	1		4996		2665	
Mkp + CG34140	1		11889		3640	
Kots (Kotsubu)	1		7697		2096	
Jhbp1 (Juvenile hormone binding protein 1)	1		22646		6234	
CG14464	1		4736		2320	
mre11 (meiotic recombination 11)	1		20928		7756	
mre11 (meiotic recombination 11)	2		6.08e5	5.72e5	1.99e5	1.73e5
Xport-A + Xport-B	1		2620	7910	1250	2026
slmb (supernumerary limbs)	1	Wg reporter activity raised (active)	28007	32889	1172	1816
ctp (cut up)	1		3091	10880	945	1249
NimC4 (Nimrod C4)	1		2393	6569	1282	2951
fus (fusilli)	1		17441		12800	
fus (fusilli)	2		10272		4032	
Pdcd4 (Programmed cell death 4)	1		19443		11148	
CG30099	1		6288		2957	
CG13894	1	Wg reporter activity raised (active)	8475		1106	
ppk17 (pickpocket 17)	1		2924	7653	972	3147

Copied from the entries so far (15 entries):
gene	dsRNA no.	reporter change call, replicate 1	firefly reporter light, replicate 1	firefly reporter light, replicate 2	Renilla control light, replicate 1	Renilla control light, replicate 2
Kots (Kotsubu)	1		7697		2096	
Jhbp1 (Juvenile hormone binding protein 1)	1		22646		6234	
CG14464	1		4736		2320	
mre11 (meiotic recombination 11)	1		20928		7756	
mre11 (meiotic recombination 11)	2		6.08e5	5.72e5	1.99e5	1.73e5
Xport-A + Xport-B	1		2620	7910	1250	2026
slmb (supernumerary limbs)	1	Wg reporter activity raised (active)	28007	32889	1172	1816
ctp (cut up)	1		3091	10880	945	1249
NimC4 (Nimrod C4)	1		2393	6569	1282	2951
fus (fusilli)	1		17441		12800	
fus (fusilli)	2		10272		4032	
Pdcd4 (Programmed cell death 4)	1		19443		11148	
CG30099	1		6288		2957	
CG13894	1	Wg reporter activity raised (active)	8475		1106	
ppk17 (pickpocket 17)	1		2924	7653	972	3147
